In publication PMC5996148:
This is one part of the list. For some assays here: Construct or isoform of the protein are uncertain.

Sequences of proteins named here, by UniProt entry; tags and fusion partners are left off. A change or cut given only in a name is not applied to a line headed by its entry.
UniProt Q8NEY1: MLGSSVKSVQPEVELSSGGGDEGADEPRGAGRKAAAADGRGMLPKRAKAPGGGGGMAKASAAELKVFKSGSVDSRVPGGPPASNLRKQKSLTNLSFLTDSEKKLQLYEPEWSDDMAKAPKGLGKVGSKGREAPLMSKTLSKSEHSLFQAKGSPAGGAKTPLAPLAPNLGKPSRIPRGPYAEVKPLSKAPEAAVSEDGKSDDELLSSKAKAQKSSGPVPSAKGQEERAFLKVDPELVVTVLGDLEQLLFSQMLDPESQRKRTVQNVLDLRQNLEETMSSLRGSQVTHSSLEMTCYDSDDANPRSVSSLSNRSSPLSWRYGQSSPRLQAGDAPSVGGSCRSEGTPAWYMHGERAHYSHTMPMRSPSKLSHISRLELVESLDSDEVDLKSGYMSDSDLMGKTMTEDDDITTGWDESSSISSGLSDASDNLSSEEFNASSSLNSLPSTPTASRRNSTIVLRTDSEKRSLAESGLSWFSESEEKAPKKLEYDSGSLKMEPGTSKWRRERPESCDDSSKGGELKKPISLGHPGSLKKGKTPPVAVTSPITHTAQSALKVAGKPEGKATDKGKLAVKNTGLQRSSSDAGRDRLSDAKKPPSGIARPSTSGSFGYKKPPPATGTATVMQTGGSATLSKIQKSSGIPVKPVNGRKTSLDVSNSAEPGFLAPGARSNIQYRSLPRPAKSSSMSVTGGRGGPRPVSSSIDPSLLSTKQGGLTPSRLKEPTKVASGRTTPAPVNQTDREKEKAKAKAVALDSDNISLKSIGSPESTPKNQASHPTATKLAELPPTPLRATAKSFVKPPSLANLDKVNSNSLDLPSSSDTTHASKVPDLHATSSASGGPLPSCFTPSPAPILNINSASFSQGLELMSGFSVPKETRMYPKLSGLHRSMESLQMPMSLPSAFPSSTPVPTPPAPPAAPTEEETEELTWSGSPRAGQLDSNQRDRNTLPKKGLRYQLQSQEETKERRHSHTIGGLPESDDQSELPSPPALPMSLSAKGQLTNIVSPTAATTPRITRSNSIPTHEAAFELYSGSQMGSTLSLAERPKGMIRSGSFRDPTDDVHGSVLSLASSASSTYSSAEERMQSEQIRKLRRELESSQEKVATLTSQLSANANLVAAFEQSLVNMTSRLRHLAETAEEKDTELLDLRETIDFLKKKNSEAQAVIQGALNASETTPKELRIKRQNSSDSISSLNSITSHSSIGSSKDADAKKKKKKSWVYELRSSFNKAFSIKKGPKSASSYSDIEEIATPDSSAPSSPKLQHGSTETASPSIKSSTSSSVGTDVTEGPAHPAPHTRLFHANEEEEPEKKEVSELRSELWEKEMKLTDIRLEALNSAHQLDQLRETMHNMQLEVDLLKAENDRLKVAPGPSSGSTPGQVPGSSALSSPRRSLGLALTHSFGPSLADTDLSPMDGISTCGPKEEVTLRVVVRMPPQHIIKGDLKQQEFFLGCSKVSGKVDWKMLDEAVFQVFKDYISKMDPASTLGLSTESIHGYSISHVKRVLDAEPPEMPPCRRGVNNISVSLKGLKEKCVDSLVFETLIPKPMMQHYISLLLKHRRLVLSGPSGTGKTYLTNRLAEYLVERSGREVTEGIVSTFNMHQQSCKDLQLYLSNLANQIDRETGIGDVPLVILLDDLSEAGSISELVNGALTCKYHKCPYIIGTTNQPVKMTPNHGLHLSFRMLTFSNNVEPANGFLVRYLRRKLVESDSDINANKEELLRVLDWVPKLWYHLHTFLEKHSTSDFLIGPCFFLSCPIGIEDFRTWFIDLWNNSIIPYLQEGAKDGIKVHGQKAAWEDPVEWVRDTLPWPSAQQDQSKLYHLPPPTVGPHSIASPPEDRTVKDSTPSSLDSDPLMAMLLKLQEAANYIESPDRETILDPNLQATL

Columns and labels:
Test in all cases: protein microarray (ProtoArray v5.0), streptavidin-Alexa Fluor 647
Settings in all cases: 3'-biotin; 20 mM Tris (pH 7.5), 5 mM MgCl2, 100 mM KCl, 0.1% Tween-20, A/T-rich and random oligonucleotide blockers; temperature not stated; high values mean tight binding
[1] = tested on: Mitogen-activated protein kinase 14 (human)
[2] = tested on: Mitogen-activated protein kinase kinase kinase 2 (human)
[3] = tested on: Mps one binder kinase activator-like 3 (human)
[4] = tested on: Myelin basic protein (human)
[5] = tested on: Myosin light chain 2, lymphocyte-specific (human)
[6] = tested on: Myosin light chain kinase, smooth muscle (human)
[7] = tested on: Myosin light polypeptide 6 (human)
[8] = tested on: N-acetyltransferase 5 (human)
[9] = tested on: N-terminal EF-hand calcium-binding protein 1 (human)
[10] = tested on: N-terminal EF-hand calcium-binding protein 2 (human)
NADSYN1 (human) = tested on: NADSYN1 (human)
NAGK (human) = tested on: NAGK (human)
NAP1L2 (human) = tested on: NAP1L2 (human)
NAP1L5 (human) = tested on: NAP1L5 (human)
NAPG (human) = tested on: NAPG (human)
NAPRT1 (human) = tested on: NAPRT1 (human)
NARS2 (human) = tested on: NARS2 (human)
NASP (human) = tested on: NASP (human)
NAV1 = NAV1 (UniProt Q8NEY1)
NBPF1 (human) = tested on: NBPF1 (human)

GGGAGGCTGAGGCAGG [G4-1 biotinylated (PQS2)]
binding signal [1]: -0.286 z-score
binding signal [2]: -0.292 z-score
binding signal [3]: -0.331 z-score
binding signal [4]: -0.351 z-score
binding signal [5]: -0.349 z-score
binding signal [6]: -0.356 z-score
binding signal [7]: -0.257 z-score
binding signal [8]: -0.296 z-score
binding signal [9]: -0.319 z-score
binding signal [10]: -0.324 z-score
binding signal (NADSYN1 (human)): -0.287 z-score
binding signal (NAGK (human)): -0.338 z-score
binding signal (NAP1L2 (human)): -0.326 z-score
binding signal (NAP1L5 (human)): -0.291 z-score
binding signal (NAPG (human)): -0.341 z-score
binding signal (NAPRT1 (human)): -0.354 z-score
binding signal (NARS2 (human)): -0.27 z-score
binding signal (NASP (human)): -0.347 z-score
binding signal (NAV1): -0.352 z-score
binding signal (NBPF1 (human)): -0.354 z-score
